In patent US20070015155A1:
Results are given in words; binding and its absence hold for the method and conditions named. Some results given as binding are weak or reduced against the parent protein; the word gives no strength. Where a sequence is shown, tags or fusion partners need not be part of it.

How the values were obtained:
[1] = molecular target: mouse c-Cbl in the expression vector for the yeast two-hybrid system (mouse) (UniProt P22682); assay: restates the yeast two-hybrid result of Example 1
[2] = molecular target: mouse c-Cbl in the expression vector for the yeast two-hybrid system (mouse) (UniProt P22682); assay: yeast two-hybrid screen, mouse c-Cbl against human skeletal muscle library

B1: fusion protein of the human skeletal muscle library clone containing the 55 amino acid residues on the carboxyl end of the polypeptide represented by SEQ ID … (protein, not shown: large carriers)
chain: RRRGLVMEAPQGSEATLPGPAPGEPWEAGGPHAGPPPAFFSACPVCGGLKVNPPP
Question: With B1 as the binder, how does the binding [1] read?
Answer: binds

Question: And the binding [2]?
Answer: binds
